Reference: publication doi:10.1101/2022.03.07.483362

B1: RPS13 (nuclear-encoded), endogenous (protein, UniProt P42732 48-169)
chain: ARVGGVEIPANKRIEYSLQYIHGIGRTRARQILVDLQMENKITKDMAEEELIILRDEVSKYMIEGDLRRFNALAIKRLKEIQCYRGVRHIQGLPCRGQRTKNNCRTLKGKKIAIAGKKKVSK
B2: 30S ribosomal protein S20 (RPS20), endogenous (protein, UniProt Q9ASV6 80-202)
chain: AAAPTKKADSAAKRARQAEKRRVYNKSKKSEARTRMKKVLEALEGLKKKTDAQADEIVTVEKLIGEAYSAIDKAVKVKALHKNTGARRKSRLARRKKAVEIHHGWYVPDAAAAAPSEAVPMAA

Molecular target: AtRsmD-GFP fusion protein (p35S:AtRsmD-GFP) in Arabidopsis seedlings (Arabidopsis thaliana)
Assay: affinity purification with mass spectrometry

Binder	binding
B1	binds
B2	binds

No constants are given. Whether binding was seen depends on the method and setting. In cells and extracts the contact can be indirect. These calls come from enrichment with a bait or labelling near it, and not all partners need be listed.
